For at least one entry, the source does not settle the construct or the ends of the probe. The comparison behind a weaker result is the experiment's own reference, which may not be listed here. At least one verdict rests on a figure or table, not on a statement of the authors. Protein sequences can lack the tags named with them.
Molecular target: T1, LoaP (Bacillus velezensis) (UniProt A7Z6E4)
T1 sequence (looked up, limits assumed): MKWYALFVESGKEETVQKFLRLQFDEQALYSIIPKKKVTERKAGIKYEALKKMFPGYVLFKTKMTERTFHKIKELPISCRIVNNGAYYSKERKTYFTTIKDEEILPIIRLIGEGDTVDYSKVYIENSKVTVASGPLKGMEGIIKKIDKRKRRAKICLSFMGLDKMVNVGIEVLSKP
Experiment: DRaCALA filter binding
Conditions: 50 mM NaH2PO4 pH 7.2, 100 mM NaCl, 0.1 mM EDTA, 1 mM MgCl2, 100 ug/mL BSA, 25 ug/mL total yeast RNA, 2.5 nM labeled RNA, 45 min, room temperature, recombinant protein, protein details: N-terminal His10-SUMO removed by bdSENP1, label: 5'-32P

CTTTACATCA [dfn segment 4 T (MDJ660)]: binds more weakly (single-stranded DNA).
CACCTATTAA [dfn segment 5 NT (MDJ656)]: binds more weakly (single-stranded DNA).
“GGAAAGGCAAUCGCUGCUUCGGCACGUUGCC [dfn hairpin (Amr261)]”: binds (25 ug/mL yeast RNA, 1 mM Mg2+).
AATAGCAACT [dfn segment 1 NT (MDJ652)]: binds more weakly (single-stranded DNA).
ATTTAATAAA [dfn segment 3 T (MDJ659)]: binds more weakly (single-stranded DNA).
TTTATTAAAT [dfn segment 3 NT (MDJ654)]: binds more weakly (single-stranded DNA).
ATTTGTTAAA [dfn segment 2 NT (MDJ653)]: binds more weakly (single-stranded DNA).
TGATGTAAAG [dfn segment 4 NT (MDJ655)]: binds more weakly (single-stranded DNA).
“GGAAACACAAUGCGUUUGCGAUUUUUAAACCUGUGCUGAAUCGCAAACGCGUUUGUG [dfnA terminator]”: binds more weakly (25 ug/mL yeast RNA, 1 mM Mg2+).
TTTAACAAAT [dfn segment 2 T (MDJ658)]: binds more weakly (single-stranded DNA).
AGTTGCTATT [dfn segment 1 T (MDJ657)]: binds more weakly (single-stranded DNA).
TTAATAGGTG [dfn segment 5 T (MDJ661)]: binds more weakly (single-stranded DNA).
